{"source": "PubChem BioAssay AID1259424 (University of Nebraska Medical Center, 2018)", "test": "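Find knockdowns that reproduce the expression shifts seen after KSR1 loss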 (primary screen)", "cells": "human HCT116 colon cancer cells", "reagents": "siRNA pool against human genes, 50 nM", "read-out": "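Six signature mRNAs by branched-DNA multiplex assay, scaled to two housekeeping genes and non-targeting median, log2; matched to mean KSR1 knockdown profile by Pearson correlation and euclidean distance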", "scale": "mean correlation with KSR1 profile: higher = expression change more like KSR1 knockdown; mean distance from KSR1 profile: higher = expression change less like KSR1 knockdown", "note": "Here is a random part of about 14,000 reagents tested. 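Higher correlation or smaller distance means closer resemblance to KSR1 loss; control wells, including KSR1 knockdowns, recur on many plates.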 Further read-outs or replicates are left out here. Not stated in the record: the time to read-out."}
{"gene symbol": "WASHC2A (WASH complex subunit 2A)", "mean correlation with KSR1 profile": 0.628, "mean distance from KSR1 profile": 1.94}
{"gene symbol": "ARHGEF18 (Rho/Rac guanine nucleotide exchange factor 18)", "mean correlation with KSR1 profile": -0.156, "mean distance from KSR1 profile": 1.4}
{"gene symbol": "SGPL1 (sphingosine-1-phosphate lyase 1)", "mean correlation with KSR1 profile": 0.192, "mean distance from KSR1 profile": 2.97}
{"gene symbol": "CSF3 (colony stimulating factor 3)", "mean correlation with KSR1 profile": 0.105, "mean distance from KSR1 profile": 1.76}
{"gene symbol": "ADGRB2 (adhesion G protein-coupled receptor B2)", "mean correlation with KSR1 profile": 0.792, "mean distance from KSR1 profile": 2.45}
{"gene symbol": "SOAT1 (sterol O-acyltransferase 1)", "mean correlation with KSR1 profile": 0.0216, "mean distance from KSR1 profile": 2}
{"gene symbol": "PTPN1 (protein tyrosine phosphatase non-receptor type 1)", "mean correlation with KSR1 profile": -0.283, "mean distance from KSR1 profile": 1.9}
{"gene symbol": "HSD17B11 (hydroxysteroid 17-beta dehydrogenase 11)", "mean correlation with KSR1 profile": 0.696, "mean distance from KSR1 profile": 5.77}
{"gene symbol": "SMPD2 (sphingomyelin phosphodiesterase 2)", "mean correlation with KSR1 profile": 0.0584, "mean distance from KSR1 profile": 3.32}
{"gene symbol": "GALNT5 (polypeptide N-acetylgalactosaminyltransferase 5)", "mean correlation with KSR1 profile": 0.0467, "mean distance from KSR1 profile": 1.05}
{"gene symbol": "LRP5 (LDL receptor related protein 5)", "mean correlation with KSR1 profile": -0.188, "mean distance from KSR1 profile": 1.68}
{"gene symbol": "RXRB (retinoid X receptor beta)", "mean correlation with KSR1 profile": -0.483, "mean distance from KSR1 profile": 1.53}

The list goes on; the last 2 above are carried over.
{"gene symbol": "LRP5 (LDL receptor related protein 5)", "mean correlation with KSR1 profile": -0.188, "mean distance from KSR1 profile": 1.68}
{"gene symbol": "RXRB (retinoid X receptor beta)", "mean correlation with KSR1 profile": -0.483, "mean distance from KSR1 profile": 1.53}
{"gene symbol": "SLC25A37", "mean correlation with KSR1 profile": -0.454, "mean distance from KSR1 profile": 2.76}
{"gene symbol": "ABHD17B (abhydrolase domain containing 17B, depalmitoylase)", "mean correlation with KSR1 profile": -0.851, "mean distance from KSR1 profile": 2.78}
{"gene symbol": "NFIC (nuclear factor I C)", "mean correlation with KSR1 profile": 0.763, "mean distance from KSR1 profile": 1.15}
{"gene symbol": "LRRFIP2 (LRR binding FLII interacting protein 2)", "mean correlation with KSR1 profile": 0.364, "mean distance from KSR1 profile": 2.37}
{"gene symbol": "GAD1 (glutamate decarboxylase 1)", "mean correlation with KSR1 profile": 0.198, "mean distance from KSR1 profile": 2.27}
{"gene symbol": "CNDP2 (carnosine dipeptidase 2)", "mean correlation with KSR1 profile": -0.498, "mean distance from KSR1 profile": 2.81}
{"gene symbol": "NRIP1 (nuclear receptor interacting protein 1)", "mean correlation with KSR1 profile": 0.432, "mean distance from KSR1 profile": 1.58}
{"gene symbol": "GPR55 (G protein-coupled receptor 55)", "mean correlation with KSR1 profile": 0.8, "mean distance from KSR1 profile": 1.99}
{"gene symbol": "RIMBP2 (RIMS binding protein 2)", "mean correlation with KSR1 profile": -0.0308, "mean distance from KSR1 profile": 2.57}
{"gene symbol": "SLC39A8", "mean correlation with KSR1 profile": 0.0786, "mean distance from KSR1 profile": 1.01}
{"gene symbol": "DALRD3 (DALR anticodon binding domain containing 3)", "mean correlation with KSR1 profile": 0.436, "mean distance from KSR1 profile": 1.51}
{"gene symbol": "TCF21 (transcription factor 21)", "mean correlation with KSR1 profile": -0.164, "mean distance from KSR1 profile": 1.54}
{"gene symbol": "PLCG2 (phospholipase C gamma 2)", "mean correlation with KSR1 profile": -0.483, "mean distance from KSR1 profile": 1.87}
{"gene symbol": "DNAJC8 (DnaJ heat shock protein family (Hsp40) member C8)", "mean correlation with KSR1 profile": -0.335, "mean distance from KSR1 profile": 2.95}
{"gene symbol": "CEP164 (centrosomal protein 164)", "mean correlation with KSR1 profile": -0.309, "mean distance from KSR1 profile": 1.39}
{"gene symbol": "HDDC2 (HD domain containing 2)", "mean correlation with KSR1 profile": -0.189, "mean distance from KSR1 profile": 1.09}
